No constants are given. Whether binding was seen depends on the method and setting.
Molecular target: Canton G6PD variant (R459L) (human) (UniProt P11413)
Experiment: condition: only with 10 mM G6P (removes the structural NADP+); SEC; size-exclusion FPLC, calibrated Superdex 75 10/300 GL; 200 ug purified Canton G6PD incubated with 10 mM G6P to remove the structural NADP+; both purified

The chains behind the UniProt entries cited, without tags or fusion partners. Where a name states a change or a piece, a line headed by the entry shows the natural chain unless it says otherwise.
UniProt P11413: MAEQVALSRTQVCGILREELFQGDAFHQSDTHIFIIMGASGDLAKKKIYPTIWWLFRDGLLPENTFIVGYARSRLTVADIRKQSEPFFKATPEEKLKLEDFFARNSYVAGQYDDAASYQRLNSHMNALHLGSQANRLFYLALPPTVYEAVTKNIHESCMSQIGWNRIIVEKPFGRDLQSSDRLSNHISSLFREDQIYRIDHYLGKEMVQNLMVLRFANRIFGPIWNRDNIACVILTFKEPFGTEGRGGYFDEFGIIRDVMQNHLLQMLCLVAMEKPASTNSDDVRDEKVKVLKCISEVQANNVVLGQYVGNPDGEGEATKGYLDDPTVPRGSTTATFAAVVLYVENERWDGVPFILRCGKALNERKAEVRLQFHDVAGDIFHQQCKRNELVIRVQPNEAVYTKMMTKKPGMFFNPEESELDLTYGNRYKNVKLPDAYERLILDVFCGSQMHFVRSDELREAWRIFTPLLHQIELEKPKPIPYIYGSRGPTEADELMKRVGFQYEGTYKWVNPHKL

Canton G6PD variant (R459L) (from UniProt P11413 1-515) (enzyme)
binding: no binding
